Assay results taken from patent US8828724B2, “Method for preparing cells for engraftment” (Institut National de la Sante et de la Recherche Medicale …, priority 2007, dated 2014).
At least one peptide structure holds a part that was inferred or is arguable (an end, a ring closure or a residue).

Assays:
BM-MNC [1] = experiment: BM-MNC spreading onto gelatin/vitronectin matrix (image analysis); format: cell-based, mouse; settings: 100 μM, 30 min adhesion, FIG. 14
[2] = tested on: BM-MNC derived from obese or diabetic mice; experiment: Adhesion of BM-MNC derived from obese Ob/Ob or diabetic mice onto gelatin/vitronectin; format: cell-based, mouse; settings: 2 h pre-incubation, gelatin/vitronectin 30 min
BM-MNC [3] = experiment: BM-MNC adhesion onto gelatin/vitronectin or fibrin gels for 30 min after pre-treatment; format: cell-based, mouse
Method: Tibias, femurs and humerus of C57BL/6 male mice were carefully dissected, bone marrow was extracted and dissociated, and bone marrow mononuclear cells (BM-MNC) were separated by differential centrifugation on Ficoll gradients (Histopaque-1083, Sigma), (2,000 r.p.m, 25 min). BM-MNC were then washed with PBS and pelleted (2,000 r.p.m, 10 min).
(§1) To evaluate the effects of TSP1 or peptides derived from its carboxyterminal sequence, 4N1-1 and 4N1-2, on cell adhesion onto gelatin/vitronectin, fibrin gels or activated SVEC monolayers, 2.10^6/ml BM-MNC or PBMC, or 10^6/ml HUCB-EPC were pretreated for 2 h at 37° C. in an incubator with 5% CO2, in the presence of TSP1 ([…]), or the 4N1-1 or 4N1-2 peptides (100 μM), or control BSA (1%), or with mouse monoclonal anti-human CD47 IgG1 B6H12 (40 μg/ml), or matched control isotype mouse IgG1 (40 μg/ml), before PBS washes and culture for the specified length of time. For adhesion experiments, supernatants were removed, adherent cells were gently washed with PBS. The number of adherent cells per high power field was counted in 3 to 5 fields per well using an inverted phase-contrast microscope at high magnification (×400).
(§2) Mouse BM-MNC and HUCB-EPC adhesion was evaluated in vitro. The effects of purified or recombinant platelet proteins, or peptide agonists of the CD47/IAP receptor was characterized. Two main approaches were used: • 1. Pre-incubation of the cells with platelet proteins for 2 h before measuring their adhesion on gelatin/vitronectin control matrix or fibrin gels for 30 min. • 2. Cell adhesion on gelatin/vitronectin control matrix or fibrin gels for 16 h in the presence of platelet proteins in solution.

BM-MNC [4] = experiment: BM-MNC adhesion onto gelatin/vitronectin for 16 h with proteins in solution; format: cell-based, mouse; settings: 16 h in presence of 100 μM, FIG. 3
Method: as §2
BM-MNC were incubated for 16 h on gelatin/vitronectin matrix in the presence of PPP, recombinant TSP1 (100 μg/ml), or peptide 4N1-1 (100 μM) before adhesion was quantified through direct cell counts by phase-contrast microscopy. As reported in FIG. 3, TSP1 stimulated adhesion by over three fold compared to the gelatin/vitronectin control (+206.8%, p<0.05).

PBMC = PBMC adhesion onto gelatin-vitronectin or fibrin gels after pre-incubation; format: cell-based, mouse; settings: pre-incubation 2 hours, 30 min adhesion, vs BSA, FIG. 4
HUCB-EPC = HUCB-EPC adhesion onto gelatin/vitronectin or fibrin gels for 15 min after pre-treatment; format: cell-based, Human; settings: 2 h pre-treatment, 15 min adhesion, FIG. 8
Method: Human umbilical cord blood (30-50 ml) was collected in sterile tubes containing heparin (15 UI/ml, Sanofi) following standard protocols in agreement with Hôpital Lariboisiére and Inserm ethical guidelines. PBMC were isolated via Ficoll gradient centrifugation (Histopaque-1077, Dominique Dutscher). To eliminate mature endothelial cells, mononuclear cells were seeded (6.10^6 cells/ml) in culture dishes (100×20 mm) at 37° C. with 5% CO2 for 16 h. Adherent cells were eliminated. […]
as §1, with “For adhesion experiments, supernatants were removed, adherent cells were gently washed with PBS.” left out

BM-MNC [5] = experiment: BM-MNC shape by FACS forward and side scatter; format: cell-based, mouse; settings: 50 μM, FSc and SSc, FIG. 15
[6] = tested on: thrombosed mesenteric veins; experiment: BM-MNC recruitment in FeCl3-induced experimental thrombosis, intra-vital microscopy; format: in vivo, C57BL/6 mouse
BM-MNC [7] = experiment: Endothelial differentiation of BM-MNC (Dil-Ac-LDL / BS1-lectin double labelling); format: cell-based, mouse; settings: 2 h pre-treatment, 5 days culture, FIG. 12
Method: BM-MNC were cultured onto gelatin/vitronectin in EBM medium for 5 days. After eliminating non adherent cells, EPC were identified through double-labelling for two endothelial characteristics: incorporation of Dil-labelled acetylated low density lipoproteins (Dil-Ac-LDL; 1 μg/ml, BioHarbor Products; red fluorescence) and binding of FITC-labelled BS1-lectin (1 μg/ml, Sigma; green fluorescence). Double fluorescence allowed the microscopic identification and counting of EPC in 3 to 5 fields per well (400× magnification). Experiments were repeated at least three times, and results expressed as percentages of EPC.
Following the previous observation that TSP1 and peptide 4N1-1 stimulate BM-MNC adhesion in vitro, the inventors measured the endothelial differentiation of treated BM-MNC. BM-MNC were cultured for 5 days, following a 2 h pre-treatment with recombinant or purified TSP1, or with peptides 4N1-1, 4N1-2, or CSVTCG (a peptide derived from the TSP1 sequence). EPC-differentiated BM-MNC were identified by fluorescence microscopy after double-labelling for Dil-Ac-LDL incorporation and BS1 lectin binding.

BM-MNC [8] = experiment: BM-MNC adhesion onto interleukin-1β-pre-activated murine endothelial monolayers; format: cell-based, mouse; settings: 2 h pre-treatment; TSP1 10 μg/ml, 4N1-1 100 μM; 30 min adhesion, FIG. 9
Method: SV40-transformed mouse lymph node endothelial cells (SVEC from ATCC), were grown in Dulbecco's Modified Eagle Medium (DMEM) supplemented with 20% FCS in 24 well plaques until they reached full confluency (7 days). SVEC monolayers were activated with 5 nM murine interleukin-1β (Calbiochem) for 2 h prior to cell-cell adhesion experiments.
as §1
BM-MNC were pre-treated for 2 h with recombinant or purified human TSP1 (10 μg/ml), or with peptide 4N1-1 (100 μM), and measured their adhesion after 30 min onto interleukin-1β-pre-activated murine endothelial monolayers. […]

BM-MNC [9] = experiment: Integrin and PSGL1 cell surface expression by FACS; format: cell-based, mouse; settings: 30 min
ischemic hindlimb = experiment: Pro-angiogenic effects of BM-MNC during experimental hindlimb ischemia; format: in vivo, C57BL/6 mice; settings: pre-treated BM-MNC injected, 14 days after ligation
[10] = BM-MNC, 2 h pre-treatment, 30 min adhesion, FIG. 1

CSCC[C@H](NC(=O)[C@@H](NC(=O)[C@@H](NC(=O)[C@H](Cc1ccc(O)cc1)NC(=O)[C@H](Cc1ccccc1)NC(=O)[C@@H](N)CCCNC(=N)N)C(C)C)C(C)C)C(=O)N[C@@H](Cc1c[nH]c2ccccc12)C(=O)N[C@@H](CCCCN)C(=O)O [4N1-1]
increase in cell spreading versus BSA (area occupied by individual cells) (BM-MNC [1]): 41% | enhancement of adhesion compared to relevant BSA control, obese Ob/Ob BM-MNC ([2]; FIG. 22): 1,245.0% | enhancement of adhesion compared to relevant BSA control, wild type BM-MNC ([2]; FIG. 22): 894.7% | enhancement of adhesion compared to relevant BSA control, diabetic (streptozotocine) BM-MNC ([2]; FIG. 23): 587.8% | enhancement of adhesion compared to relevant BSA control, non-diabetic BM-MNC ([2]; FIG. 23): 270.3% | stimulation of adhesion relative to the most efficient tested dose of TSP1 (100 nM) (BM-MNC [3]; 100 μM of 4N1-1 peptide, FIG. 5): about 6 times | stimulation of BM-MNC adhesion onto gelatin/vitronectin compared with BSA (BM-MNC [3]; 2 h pre-treatment, 30 min adhesion, FIG. 7): +310.4% | modulation of BM-MNC adhesion compared with BSA (BM-MNC [3]; 2 h pre-treatment, 30 min adhesion, gelatin/vitronectin, FIG. 26): stimulated BM-MNC adhesion significantly | concentration from which stimulation of adhesion was dose-dependent (BM-MNC [3]; 2 h pre-treatment, FIG. 5): ≥ 100 nM | stimulation of adhesion on fibrin compared with BSA (BM-MNC [3]; [10]): +186.0% | stimulation of adhesion onto gelatin/vitronectin compared with BSA (BM-MNC [3]; [10]): +249.6% | time the increased capacity to adhere was maintained after initiating the stimulation (BM-MNC [3]; FIG. 6): at least 2 hours | effect on adhesion over 16 h (BM-MNC [4]): increased adhesion significantly | stimulation of PBMC adhesion onto gelatin-vitronectin (PBMC): +403.2% | stimulation of HUCB-EPC adhesion onto fibrin compared with BSA (HUCB-EPC): +73.8% | stimulation of HUCB-EPC adhesion onto gelatin-vitronectin compared with BSA (HUCB-EPC): +58.5% | treatment time sufficient to trigger significant changes in cell shape (BM-MNC [5]): 60 s | number of firm adhesions ([6]; BM-MNC pre-treated 2 h, cumulated over initial 10 min post-injury, BSA 0.3, FIG. 19): 4.3 firm adhesions | average BM-MNC rolling speed at sites of vascular thrombosis ([6]; BM-MNC pre-treated 2 h, initial 10 min post-injury, BSA 149.8, FIG. 18): 12.8 μm/sec | decrease of average BM-MNC rolling speed vs BSA ([6]; initial 10 min post-injury, FIG. 18): over 12 fold | increase of the number of firm adhesions vs BSA ([6]; initial 10 min post-injury, FIG. 19): over 14 fold | stimulation of endothelial differentiation vs BSA (BM-MNC [7]): 28.9% | stimulation of adhesion onto endothelial monolayers compared with BSA (BM-MNC [8]): +359.5% | integrin β2-expression (BM-MNC [9]; 50 μM, vs BSA): failed to modulate | integrin αv-expression (labelled cells) (BM-MNC [9]; 50 μM, BSA 22.8%): 64.8% | integrin β1-expression (labelled cells) (BM-MNC [9]; 50 μM, BSA 30.7%): 48.1% | PSGL1 expression (labelled cells) (BM-MNC [9]; 50 μM, BSA 44.4%): 61.8% | integrin β3-expression (labelled cells) (BM-MNC [9]; 50 μM, BSA 72.0%, trend, not significant (p=0.07)): 79.4% | co-expression of integrin αv and PSGL1 (BM-MNC [9]; BSA 11.5%, FIG. 30): 48.4% | co-expression of integrin β1 and β2 and β3 (BM-MNC [9]; BSA 18.8%, FIG. 30): 44.8% | co-expression of integrin β1 and β3 (BM-MNC [9]; BSA 22.4%, FIG. 30): 53.1% | co-expression of integrin β1 and β2 (BM-MNC [9]; BSA 29.8%, FIG. 30): 54.4% | co-expression of integrin β2 and β3 (BM-MNC [9]; BSA 67.4%, FIG. 30): 75.6% | stimulation of cutaneous reperfusion compared with BSA (laser-doppler) (ischemic hindlimb; FIG. 20): +30.20% | more extended perfused vascular network compared with BSA (micro-angiographic score) (ischemic hindlimb; FIG. 21): +41.45%
